Experimental data: article PMC7736090

Chains of the proteins cited; added tags and fusions are not shown. Lines headed by an entry give the natural chain unless they say otherwise; changes in a name come on top.
UniProt F0NHS7: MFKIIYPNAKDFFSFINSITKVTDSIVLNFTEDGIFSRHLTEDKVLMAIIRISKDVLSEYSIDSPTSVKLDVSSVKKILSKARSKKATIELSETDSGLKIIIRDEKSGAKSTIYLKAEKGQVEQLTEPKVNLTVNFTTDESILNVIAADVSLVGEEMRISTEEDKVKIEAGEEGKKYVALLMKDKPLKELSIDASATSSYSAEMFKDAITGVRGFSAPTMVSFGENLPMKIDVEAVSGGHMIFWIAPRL
UniProt F0NHR9: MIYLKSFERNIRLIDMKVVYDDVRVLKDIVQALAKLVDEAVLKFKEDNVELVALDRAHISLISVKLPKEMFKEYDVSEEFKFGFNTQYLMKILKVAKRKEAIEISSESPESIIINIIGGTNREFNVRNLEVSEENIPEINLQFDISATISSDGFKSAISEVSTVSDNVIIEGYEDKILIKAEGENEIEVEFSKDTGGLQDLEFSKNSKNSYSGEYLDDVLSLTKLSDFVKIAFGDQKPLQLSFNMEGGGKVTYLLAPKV
UniProt F0NGU9: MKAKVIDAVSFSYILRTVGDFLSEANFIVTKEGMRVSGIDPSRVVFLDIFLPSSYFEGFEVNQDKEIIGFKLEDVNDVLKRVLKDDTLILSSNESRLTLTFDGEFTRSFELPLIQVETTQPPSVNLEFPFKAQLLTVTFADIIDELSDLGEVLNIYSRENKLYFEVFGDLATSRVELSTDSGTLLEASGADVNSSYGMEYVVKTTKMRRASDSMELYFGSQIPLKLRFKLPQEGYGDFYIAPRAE

Tests used:
[1] = biological target: PCNA subunit SiRe_1602 of Sulfolobus islandicus REY15A (Sulfolobus islandicus REY15A) (UniProt F0NHS7); assay: SEC; mixture of the three purified PCNA subunits passed through a gel filtration column (Superdex 200 10/300; 50 mM Tris-HCl pH 8.0, 100 mM NaCl, 5% glycerol); heterotrimer eluted around 13 ml, earlier than the individual subunits; both purified
[2] = biological target: PCNA subunit SiRe_1594 of Sulfolobus islandicus REY15A (Sulfolobus islandicus REY15A) (UniProt F0NHR9); assay: as above

Row | binding [1] | binding [2] | Substance
1 | binds | binds | PCNA subunit SiRe_1048 of Sulfolobus islandicus REY15A (from UniProt F0NGU9)
2 |  | binds | PCNA subunit SiRe_1602 of Sulfolobus islandicus REY15A (from UniProt F0NHS7)

These are yes or no findings as the source states them, for the method shown. A result given as binding can be weak or reduced; the word gives no strength.
